US20100104552A1, “ANTIBIOTIC SYNERGISM” (priority 2008, published 2010)
Some of these results come from one statement about several compounds together.

Assays:
[1] = In vitro binding to LipidI
[2] = In vitro binding to LipidII

With Plectasin the binding-constant [1] was 10^−6 to 10^−7 M^−1 and the binding-constant [2] was 10^−6 to 10^−7 M^−1.
